Measured values: the supplement of paper PMC12889115
The list shows a part of the results. Values are raw readings; no control value is given beside them.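 First-pass screen: polymyxin B was added at a level that permeabilizes the Salmonella outer membrane while sparing the inner membrane. DMSO wells, with and without polymyxin B, defined maximum growth. Because plates differed from one another, each plate's data were ranked separately and the compounds with the lowest OD600 were carried forward as hits.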

System: Salmonella enterica serovar Typhimurium SL1344
Test: bacterial growth OD600 after 18 h with compound and polymyxin B; higher = more bacterial growth (less inhibition)
Details: 50 µM, Mueller-Hinton broth

Row | SMILES | bacterial growth OD600 (polymyxin B 0.75 µg/mL) | bacterial growth OD600 (polymyxin B 1 µg/mL)
1 | CCn1cc(CN2Cc3cc(C)ccc3OC(c3ccsc3)C2)c(C)n1 (stereo unspecified) | 0.78 | 
2 | COc1ccc(CC2(CCC(=O)NC(C)c3ccc(F)cc3)CCC(=O)N2)c(F)c1 (stereo unspecified) | 0.838 | 
3 | COc1ccccc1CN(C)C(=O)c1csc2nc(-c3ccccc3)cn12 |  | 0.62
4 | Cc1cc(C)n(Cc2cc(C(=O)N(Cc3nccn3C)C(C)C)n[nH]2)n1 |  | 1.07
5 | CN(Cc1ccon1)C(=O)c1csc2nc(-c3cccc(F)c3)cn12 | 0.68 | 
6 | COCCN(Cc1ccccn1)C(Cc1ccccc1)C1CCN(Cc2cc(OC)ccc2O)CC1 (stereo unspecified) | 0.682 | 
7 | COc1ccc(CC(=O)NC2CC(=O)N(Cc3ccccc3Cl)C2)cc1 (stereo unspecified) |  | 0.708
8 | CCCN(CC1CCCO1)C(=O)CC1(c2ccccc2)CC(=O)N(Cc2ccc3c(c2)OCO3)C1=O (stereo unspecified) | 0.005 | 
9 | O=C(c1ccc2[nH]ccc2c1)N1CCOc2ccc(CN3CCN(CCO)CC3)cc2C1 | 0.855 | 
10 | COc1ccccc1-c1ccnc(-n2ncc(C(=O)NCC(C)(C)CN(C)C)c2C)n1 | 0.793 | 
11 | O=C1CCC(CCC(=O)N2CCN(c3ccccc3O)CC2)(Cc2ccc(-c3ccccc3)cc2)N1 (stereo unspecified) | 0.012 | 
12 | O=C(NC1CCOC1)c1cc(COc2cccc(C(F)(F)F)c2)[nH]n1 (stereo unspecified) | 0.713 | 
13 | CCC(=O)N[C@@H]1c2ccccc2C2(CCN(C(=O)c3ccc(C)c(C)c3)CC2)[C@H]1OCc1cccnc1 | 0.791 | 
14 | O=C(c1ccc2ncccc2c1)N1CCCC(Nc2ccc(F)cc2)C1 (stereo unspecified) |  | 1.29
15 | COc1ccccc1-c1cn2c(C(=O)N(C)Cc3cnn(C)c3)csc2n1 | 0.797 | 
16 | COc1ccc(C(=O)N2CCCC2)c(OC2CCN(CCCc3ccccc3)CC2)c1 |  | 1.17
17 | Cc1ccc(Oc2ncccc2CNC2CCC2)c(F)c1F |  | 0.86
18 | CCn1cnnc1CN(C)c1ccc(-c2nc(C(C)C)no2)cn1 | 0.778 | 
19 | CCCN1CCC(Nc2nc3nonc3nc2NCCCOC)CC1 | 0.792 | 
20 | COc1ccc(CCN2CCC(CN(C)Cc3cnc(SC)nc3)CC2)cc1 |  | 1.2
21 | COc1cccc(-c2nn(-c3ccccc3)cc2CN2CCCC(OC)C2)c1 (stereo unspecified) | 0.664 | 

Look-ups from above:
COc1ccc(C(=O)N2CCCC2)c(OC2CCN(CCCc3ccccc3)CC2)c1 – bacterial growth OD600 (polymyxin B 1 µg/mL): 1.17
CCCN(CC1CCCO1)C(=O)CC1(c2ccccc2)CC(=O)N(Cc2ccc3c(c2)OCO3)C1=O (stereo unspecified) – bacterial growth OD600 (polymyxin B 0.75 µg/mL): 0.005
